Data: patent US20220315624A1, “THIOSTREPTON ANALOGS AND METHODS OF MAKING AND USING SAME” (YALE UNIVERSITY, priority 2019, published 2022)
Some entries share one result that the patent states for a list of compounds.

Tested on: S. pneumoniae and S. pyogenes isolates
Experiment: MIC broth microdilution, summary over streptococci
Assay type: cell-based
Conditions: across evaluated streptococci
Procedure: Twenty-four test agents were shipped to Micromyx and stored at −20° C. until assayed. The compounds were dissolved in 100% DMSO at 6.46 mg/mL prior to testing. Comparator drugs were supplied by Micromyx and were handled as described below:
The test organisms for the assay were recent clinical isolates or reference strains acquired from the American Type Culture Collection (ATCC; Manassas, Va.). Upon receipt, the isolates were streaked onto Trypticase Soy Agar II+5% sheep blood (TSAB). Colonies were harvested from the plates and a cell suspension was prepared in Trypticase Soy Broth containing cryoprotectant. Aliquots were then frozen at −80° C. Prior to the assay, the frozen seeds of all bacterial isolates to be tested were thawed and streaked for isolation onto TSAB (BD/BBL, Sparks, Md.; Lot No. 9011894), and were incubated overnight at 35° C.
The test medium for all isolates was cation-adjusted Mueller Hinton broth (CAMHB; BD/BBL; Lot No. 8190586). […]
MIC values were determined using a broth microdilution method as recommended by CLSI. […]
Plates were stacked 3 high, covered with a lid on the top plate, placed in plastic bags, and incubated at 35° C. for 16-20 hr for all organisms except streptococci which were incubated for 20-24 hr. […] The MIC was read and recorded as the lowest concentration of drug that inhibited visible growth of the organism. […]

C=C(NC(=O)c1csc(C2=N[C@@H]3c4csc(n4)[C@H]4NC(=O)c5csc(n5)[C@H]([C@](C)(O)[C@@H](C)O)NC(=O)C5CSC(=N5)/C(=C/C)NC(=O)[C@H]([C@@H](C)O)NC(=O)c5csc(n5)[C@]3(CC2)NC(=O)[C@H](C)NC(=O)C(=C)NC(=O)[C@H](C)NC(=O)[C@H]([C@@H](C)CC)N[C@@H]2C=Cc3c([C@H](C)O)cc(nc3[C@H]2O)C(=O)O[C@@H]4C)n1)C(=O)NC(=CNC(=O)c1ccc(Cl)cc1)C(N)=O [RJS-09]
MIC values against S. pneumoniae and S. pyogenes isolates: 1 to 2000 ng/mL

C=C(NC(=O)c1csc(C2=N[C@@H]3c4csc(n4)[C@H]4NC(=O)c5csc(n5)[C@H]([C@](C)(O)[C@@H](C)O)NC(=O)C5CSC(=N5)/C(=C/C)NC(=O)[C@H]([C@@H](C)O)NC(=O)c5csc(n5)[C@]3(CC2)NC(=O)[C@H](C)NC(=O)C(=C)NC(=O)[C@H](C)NC(=O)[C@H]([C@@H](C)CC)N[C@@H]2C=Cc3c([C@H](C)O)cc(nc3[C@H]2O)C(=O)O[C@@H]4C)n1)C(=O)NC(=CNC(=O)COCCOC)C(N)=O [RJS-10]
MIC values against S. pneumoniae and S. pyogenes isolates: 1 to 2000 ng/mL
